Experimental data reported in US20200010910A1, “Cytotoxic Chemotherapy-Based Predictive Assays for Acute Myeloid Leukemia” (The Regents of The University of California, priority 2017, published 2020).

Tested on: A549 tumor xenografts
Assay: titration of 14C-carboplatin radioactive dose, AMS signal to noise in tumor DNA
Type: in vivo, mice
Conditions: for Signal to Noise, Sample #1/#2: listed as 14C-carboplatin
[1] = 5,000 dpm/gm of body weight, total carboplatin at 2 mg/m^2
[2] = 10,000 dpm/gm of body weight, total carboplatin at 2 mg/m^2
[3] = 10,000 dpm/gm of body weight, total carboplatin at 200 mg/m^2

## N.N.O=C([O-])C1(C(=O)[O-])CCC1.[Pt+2] [carboplatin]
[1]
  Signal to Noise, Mean: 0.19
  Signal to Noise, Sample #1/#2: 0.24 and 0.14
5,000 dpm/gm of body weight, total carboplatin at 200 mg/m^2
  Signal to Noise, Mean: 108
[2]
  Signal to Noise, Mean: 1.23
  Signal to Noise, Sample #1/#2: 1.27 and 1.19
[3]
  Signal to Noise, Mean: 40
  Signal to Noise, Sample #1/#2: 37.6 and 42.2
50,000 dpm/gm of body weight, total carboplatin at 2 mg/m^2
  Signal to Noise, Mean: 3.30
50,000 dpm/gm of body weight, total carboplatin at 2 mg/m^2, tumor resected 4 hours
  Signal to Noise, Sample #1/#2: 3.37 and 3.22
50,000 dpm/gm of body weight, total carboplatin at 200 mg/m^2
  Signal to Noise, Mean: 589

Values joined by “and” are separate entries in the source; they are usually repeats but may differ in a detail not shown here. Equal entries are not always repeated.
